According to article doi:10.1101/2025.06.04.657913:
No constants are given. Whether binding was seen depends on the method and setting. In cells and extracts the contact can be indirect. Some results given as binding are weak or reduced against the parent protein; the word gives no strength. Tags and fused reporters may be left off the sequences shown.

B1: Flag-Kv6.4 (protein, UniProt Q80XM3 1-506)
chain: MPMSSRDRDLHPGHHHFGSCSPLSQLWPGPEPKSVKGLYYSRARKVGNQDASPEANLKEILVNVGGQRYLLPWSTLDAFPLSRLSRLRLCRSHEEITQLCDDYDEDSQEFFFDRNPSAFGVIVSFLAAGKLVLLREMCALSFREELSYWGIEETNLERCCLRKLLKKLEEAAELRREEAAQRQQQRQACHSEVQASRWARSMNQLREMVEDPQSGLPGKVFACLSVLFVATTAVSLCVSTMPDFRAEEGKGECTRKCYYIFVVESICVAWFSLEFCLRFVQAPNKCQFFRGPLNVIDILAISPYYVSLAVSDESPEAGERPSSSSYLEKVGLVLRVLRALRILYVMRLARHSLGLQTLGLTVRRCAREFGLLMLFLAVAVTLFSPLVYVAENESGRVLEFTSIPASYWWAIISMTTVGYGDMVPRSVPGQMVALSSILSGILIMAFPATSIFHTFSHSYLELKREQEQVQARLRRLQNTNSASERELLSDVDDLVPEGLTSPGRYM
B2: Flag-tagged-Kv5.1 (protein, UniProt Q7TSH7 1-493)
chain: MDASAEQSLPEPGSQDSVAGEDIEIVVNVGGVRQVLYGDLLSQYPETRLAELINCLAGGYDTIFSLCDDYDPGKREFYFDRDPDAFKCVIEVYYFGEVHMKKGICPICFKNEMDFWKVDLKFLDDCCKSHLSEKREELEEIARRVQLILDDLGVDAAEGRWRRCQKCVWKFLEKPESSCPARVVAVLSFLLILVSSVVMCMGTIPELQVVDSEGNRVEHPTLENVETACIGWFTLEYLLRLFSSPNKLHFALSFMNIVDVLAILPFYVSLTLTHLGARMMELTNVQQAVQALRIMRIARIFKLARHSSGLQTLTYALKRSFKELGLLLMYLAVGIFVFSALGYTMEQSHPETLFKSIPQSFWWAIITMTTVGYGDIYPKTTLGKLNAAISFLCGVIAIALPIHPIINNFVRYYNKQRVLETAAKHELELMELNSSSAEGKPGGSRSDLDTLPPEPAAREGPSWGSRLKLSHSDTFIPLLTEEKHHRTRLQSCK
B3: Flag-tagged Kv9.1 (protein, UniProt O35173 1-497)
chain: MVSEFPGPGSRVPWRPRDEALRVNVGGVRRLLSARALARFPGTRLGRLQAAASEEQARRLCDDYDAAAHEFYFDRHPGFFLGLLHFYRTGHLHVLDELCVFAFGQEADYWGLGENALATCCRARYLERRVARPRAWDEDSDAPSSVDPCPDEISDVQRELARYGAARCGRLRRRLWLTMENPGYSLPSKLFSCVSIGVVLASIAAMCIHSLPEYQAREAAAAVAAVAAGRSAEEVRDDPVLRRLEYFCIAWFSFEVSSRLLLAPSTRNFFCHPLNLIDIVSVLPFYLTLLAGAALGDQRGASGEELGDLGKVVQVFRLMRIFRVLKLARHSTGLRSLGATLKHSYREVGILLLYLAVGVSVFSGVAYTAEEENEGFHTIPACWWWGTVSMTTVGYGDVVPETVGGKLAASGCILGGILVVALPITIIFNKFSHFYRRQKALEAAVRSSGQREFEDLLSSVDGVSDVSLETSRDTSQEGRSTDLETQAPREPAKSHSY
B4: GFP-Kv2.1 (protein, UniProt P15387 1-857)
chain: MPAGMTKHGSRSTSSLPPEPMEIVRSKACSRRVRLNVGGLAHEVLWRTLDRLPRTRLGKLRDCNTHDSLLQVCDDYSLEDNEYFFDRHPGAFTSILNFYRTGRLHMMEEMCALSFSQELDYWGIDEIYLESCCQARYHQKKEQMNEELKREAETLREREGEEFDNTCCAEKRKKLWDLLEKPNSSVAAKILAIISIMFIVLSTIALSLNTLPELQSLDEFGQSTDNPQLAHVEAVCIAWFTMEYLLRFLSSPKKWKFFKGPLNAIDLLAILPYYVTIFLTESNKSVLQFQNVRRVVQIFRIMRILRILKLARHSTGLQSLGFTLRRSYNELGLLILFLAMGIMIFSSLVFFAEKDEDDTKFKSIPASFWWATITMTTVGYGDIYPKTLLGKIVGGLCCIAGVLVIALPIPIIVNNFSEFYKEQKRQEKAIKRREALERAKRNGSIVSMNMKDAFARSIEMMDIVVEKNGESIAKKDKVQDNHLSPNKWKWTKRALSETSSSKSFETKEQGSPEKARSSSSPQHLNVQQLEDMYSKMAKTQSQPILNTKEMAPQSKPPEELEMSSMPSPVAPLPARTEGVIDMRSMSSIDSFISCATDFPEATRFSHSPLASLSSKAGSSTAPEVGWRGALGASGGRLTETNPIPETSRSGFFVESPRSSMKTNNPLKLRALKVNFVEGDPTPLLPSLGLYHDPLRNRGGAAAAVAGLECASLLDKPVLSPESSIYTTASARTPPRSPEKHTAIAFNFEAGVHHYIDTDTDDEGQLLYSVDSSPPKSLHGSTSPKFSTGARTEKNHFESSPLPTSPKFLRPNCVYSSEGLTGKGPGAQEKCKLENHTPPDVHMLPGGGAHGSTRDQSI
B5: GFP-Kv2.2 (protein, UniProt Q63099 1-907)
chain: MAEKAPPGLNRKTSRSTLSLPPEPVDIIRSKTCSRRVKINVGGLNHEVLWRTLDRLPRTRLGKLRDCNTHESLLEVCDDYNLNENEYFFDRHPGAFTSILNFYRTGKLHMMEEMCALSFGQELDYWGIDEIYLESCCQARYHQKKEQMNEELRREAETMRDGEGEEFDNTCCPEKRKKLWDLLEKPNSSVAAKILAIVSILFIVLSTIALSLNTLPELQENDEFGQPSDNRKLAHVEAVCIAWFTMEYLLRFLSSPNKWKFFKGPLNVIDLLAILPYYVTIFLTESNKSVLQFQNVRRVVQIFRIMRILRILKLARHSTGLQSLGFTLRRSYNELGLLILFLAMGIMIFSSLVFFAEKDEDATKFTSIPASFWWATITMTTVGYGDIYPKTLLGKIVGGLCCIAGVLVIALPIPIIVNNFSEFYKEQKRQEKAIKRREALERAKRNGSIVSMNLKDAFARSMELIDVAVEKAGESANIKDSVDDNHLSPSRWKWARKALSETSSNKSYENKYQEVSQKDSHEQLNNTSSSSPQHLSAQKLEMLYNEITKTQTHSHPNPDCQEQPERPSAYEEEIEMEEVVCPQEQLAVAQTEVIVDMKSTSSIDSFTSCATDFTETERSPLPPPSASHLQMKFPTDLPGMDEHQRVRAPPFLTLSRDKGPAAREAALDYAPIDITVNLDAGASHGPLQPDSASDSPKSSLKGSNPLKSRSLKVNFQENRGSAPQTPPSTARPLPVTTADFPLTTPQHMSTILLEESPPPGTETLPGADVSAHCQGPSKGLSPRVPKQKLFPFSSRERRSFTEIDTGEDEDFLDLQRPRPDKQADPSPNCLADKPGEARDPLREEGCVGSSSPQNTDHNCRQDIYQAVGEVKKDSSQEGYKMENHLFAPEIHSNPGDTGYCPTRETSM

Assays:
Kv2.1 (rat) = molecular target: T1, Kv2.1 (rat) (UniProt P15387); assay: co-IP
T1 sequence: B4 chain

Flag-Kv6.4 (mouse) = molecular target: T2, Flag-Kv6.4 (mouse) (UniProt Q80XM3); assay: co-IP
T2 sequence: B1 chain

| Binder | binding (Kv2.1 (rat)) | binding (Flag-Kv6.4 (mouse)) |
| --- | --- | --- |
| B1 | binds | – |
| B2 | binds | – |
| B3 | binds | – |
| B4 | – | binds |
| B5 | – | binds |
